Results as given in the supplement of paper PMC10849652.
The other results are listed elsewhere or left out.

The chains behind the UniProt entries cited, without tags or fusion partners. Where a name states a change or a piece, a line headed by the entry shows the natural chain unless it says otherwise.
UniProt Q7Z7L7: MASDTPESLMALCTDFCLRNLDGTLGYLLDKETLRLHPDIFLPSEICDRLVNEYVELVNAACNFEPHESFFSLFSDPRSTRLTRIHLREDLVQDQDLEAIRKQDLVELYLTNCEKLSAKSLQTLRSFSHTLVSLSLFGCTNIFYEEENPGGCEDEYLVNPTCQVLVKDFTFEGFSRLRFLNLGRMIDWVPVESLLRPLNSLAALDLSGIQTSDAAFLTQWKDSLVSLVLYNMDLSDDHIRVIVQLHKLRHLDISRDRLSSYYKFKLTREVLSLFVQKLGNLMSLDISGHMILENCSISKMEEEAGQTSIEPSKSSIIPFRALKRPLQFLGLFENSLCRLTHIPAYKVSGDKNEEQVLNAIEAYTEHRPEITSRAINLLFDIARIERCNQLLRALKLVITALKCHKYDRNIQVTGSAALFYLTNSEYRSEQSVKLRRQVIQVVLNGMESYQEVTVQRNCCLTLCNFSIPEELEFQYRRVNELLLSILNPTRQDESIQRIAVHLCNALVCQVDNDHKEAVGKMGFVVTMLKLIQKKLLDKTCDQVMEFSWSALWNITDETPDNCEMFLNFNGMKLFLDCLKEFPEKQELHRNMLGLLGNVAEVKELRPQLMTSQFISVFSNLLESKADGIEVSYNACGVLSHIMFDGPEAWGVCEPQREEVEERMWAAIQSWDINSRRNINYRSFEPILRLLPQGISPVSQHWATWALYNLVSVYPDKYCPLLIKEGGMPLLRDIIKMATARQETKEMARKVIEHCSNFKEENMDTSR
UniProt O75362: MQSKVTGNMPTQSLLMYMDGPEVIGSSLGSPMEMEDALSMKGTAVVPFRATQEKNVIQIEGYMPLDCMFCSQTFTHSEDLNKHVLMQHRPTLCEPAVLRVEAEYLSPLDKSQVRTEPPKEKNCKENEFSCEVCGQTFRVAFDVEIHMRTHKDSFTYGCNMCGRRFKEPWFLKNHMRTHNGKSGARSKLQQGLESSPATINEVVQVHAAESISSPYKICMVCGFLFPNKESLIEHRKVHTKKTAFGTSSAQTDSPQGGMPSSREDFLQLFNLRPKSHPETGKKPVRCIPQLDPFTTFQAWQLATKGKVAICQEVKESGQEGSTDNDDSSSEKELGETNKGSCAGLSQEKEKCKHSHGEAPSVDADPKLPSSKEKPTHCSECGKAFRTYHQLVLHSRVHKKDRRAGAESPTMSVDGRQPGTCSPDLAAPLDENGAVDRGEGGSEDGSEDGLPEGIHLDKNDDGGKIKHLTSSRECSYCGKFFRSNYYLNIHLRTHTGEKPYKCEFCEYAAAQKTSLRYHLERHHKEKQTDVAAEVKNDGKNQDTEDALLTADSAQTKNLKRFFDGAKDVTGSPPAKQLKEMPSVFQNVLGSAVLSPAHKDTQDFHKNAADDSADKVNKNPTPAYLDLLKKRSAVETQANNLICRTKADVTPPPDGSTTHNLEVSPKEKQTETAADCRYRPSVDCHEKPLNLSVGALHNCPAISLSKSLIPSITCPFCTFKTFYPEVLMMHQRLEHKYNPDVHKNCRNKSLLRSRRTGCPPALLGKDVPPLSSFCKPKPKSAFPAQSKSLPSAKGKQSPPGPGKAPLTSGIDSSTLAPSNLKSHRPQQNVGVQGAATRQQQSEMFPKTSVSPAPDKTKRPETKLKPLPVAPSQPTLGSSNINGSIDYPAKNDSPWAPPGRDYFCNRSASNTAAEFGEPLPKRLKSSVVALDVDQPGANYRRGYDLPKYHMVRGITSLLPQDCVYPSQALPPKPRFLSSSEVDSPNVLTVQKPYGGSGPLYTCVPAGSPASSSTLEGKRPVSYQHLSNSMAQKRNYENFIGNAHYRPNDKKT
UniProt P12956: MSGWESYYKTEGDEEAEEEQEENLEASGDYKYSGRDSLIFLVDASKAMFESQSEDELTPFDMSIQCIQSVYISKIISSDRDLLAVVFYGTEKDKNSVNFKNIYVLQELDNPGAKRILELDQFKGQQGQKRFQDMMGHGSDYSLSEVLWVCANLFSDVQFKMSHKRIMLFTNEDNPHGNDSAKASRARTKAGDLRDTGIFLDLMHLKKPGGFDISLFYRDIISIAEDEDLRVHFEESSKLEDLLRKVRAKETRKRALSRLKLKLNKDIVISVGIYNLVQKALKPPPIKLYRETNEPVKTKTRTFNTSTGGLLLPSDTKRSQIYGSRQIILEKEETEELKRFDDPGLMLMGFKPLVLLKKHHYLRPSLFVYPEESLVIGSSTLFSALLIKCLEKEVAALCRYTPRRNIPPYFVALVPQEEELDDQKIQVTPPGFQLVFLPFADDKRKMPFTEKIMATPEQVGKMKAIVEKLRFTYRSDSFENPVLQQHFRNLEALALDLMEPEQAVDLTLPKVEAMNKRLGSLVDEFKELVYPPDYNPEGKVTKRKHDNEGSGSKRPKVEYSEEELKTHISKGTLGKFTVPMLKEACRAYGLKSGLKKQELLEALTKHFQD
UniProt P17028: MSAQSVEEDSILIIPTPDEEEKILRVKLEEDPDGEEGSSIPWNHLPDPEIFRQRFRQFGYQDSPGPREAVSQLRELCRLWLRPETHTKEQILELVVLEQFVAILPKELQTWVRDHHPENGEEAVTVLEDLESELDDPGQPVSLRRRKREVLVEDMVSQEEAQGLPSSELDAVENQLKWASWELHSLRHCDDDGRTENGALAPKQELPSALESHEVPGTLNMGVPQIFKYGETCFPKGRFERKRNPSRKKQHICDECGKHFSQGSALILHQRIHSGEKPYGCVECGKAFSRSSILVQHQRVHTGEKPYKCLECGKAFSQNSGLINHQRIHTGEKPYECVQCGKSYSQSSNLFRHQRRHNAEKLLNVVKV
UniProt O95159: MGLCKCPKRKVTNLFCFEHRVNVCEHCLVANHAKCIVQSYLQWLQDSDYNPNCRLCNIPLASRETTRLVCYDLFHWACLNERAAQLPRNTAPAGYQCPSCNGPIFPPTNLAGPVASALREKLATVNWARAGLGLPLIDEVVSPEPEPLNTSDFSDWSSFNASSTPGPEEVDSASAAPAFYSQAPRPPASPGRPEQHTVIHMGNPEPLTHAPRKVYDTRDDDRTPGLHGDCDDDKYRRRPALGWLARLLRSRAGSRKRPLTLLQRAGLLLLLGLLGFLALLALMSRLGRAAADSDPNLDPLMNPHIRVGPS
UniProt Q16600: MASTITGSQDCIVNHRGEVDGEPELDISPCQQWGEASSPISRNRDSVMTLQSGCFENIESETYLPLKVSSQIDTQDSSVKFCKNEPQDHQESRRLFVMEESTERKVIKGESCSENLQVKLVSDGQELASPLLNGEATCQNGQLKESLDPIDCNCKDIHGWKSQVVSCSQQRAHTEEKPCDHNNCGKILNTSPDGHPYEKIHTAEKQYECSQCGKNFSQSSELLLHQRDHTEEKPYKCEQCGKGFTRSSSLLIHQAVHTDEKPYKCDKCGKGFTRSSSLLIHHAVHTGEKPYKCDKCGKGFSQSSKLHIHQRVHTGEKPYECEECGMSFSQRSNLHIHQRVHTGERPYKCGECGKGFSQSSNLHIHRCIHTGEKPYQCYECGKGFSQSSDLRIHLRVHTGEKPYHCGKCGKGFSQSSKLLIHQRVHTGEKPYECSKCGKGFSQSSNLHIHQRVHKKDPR
UniProt P25490, whole entry, looked up: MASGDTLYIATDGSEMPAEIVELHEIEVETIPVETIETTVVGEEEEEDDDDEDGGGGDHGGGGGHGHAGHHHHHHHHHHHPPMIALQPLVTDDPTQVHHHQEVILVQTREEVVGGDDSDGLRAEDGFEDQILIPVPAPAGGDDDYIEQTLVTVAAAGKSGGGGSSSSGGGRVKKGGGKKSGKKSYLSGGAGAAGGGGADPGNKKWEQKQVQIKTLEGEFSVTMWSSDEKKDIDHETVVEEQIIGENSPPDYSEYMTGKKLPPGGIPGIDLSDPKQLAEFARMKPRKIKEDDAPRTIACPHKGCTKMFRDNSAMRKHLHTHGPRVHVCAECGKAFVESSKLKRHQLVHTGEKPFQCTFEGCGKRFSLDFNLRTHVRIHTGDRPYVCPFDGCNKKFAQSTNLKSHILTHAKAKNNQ
UniProt P13010: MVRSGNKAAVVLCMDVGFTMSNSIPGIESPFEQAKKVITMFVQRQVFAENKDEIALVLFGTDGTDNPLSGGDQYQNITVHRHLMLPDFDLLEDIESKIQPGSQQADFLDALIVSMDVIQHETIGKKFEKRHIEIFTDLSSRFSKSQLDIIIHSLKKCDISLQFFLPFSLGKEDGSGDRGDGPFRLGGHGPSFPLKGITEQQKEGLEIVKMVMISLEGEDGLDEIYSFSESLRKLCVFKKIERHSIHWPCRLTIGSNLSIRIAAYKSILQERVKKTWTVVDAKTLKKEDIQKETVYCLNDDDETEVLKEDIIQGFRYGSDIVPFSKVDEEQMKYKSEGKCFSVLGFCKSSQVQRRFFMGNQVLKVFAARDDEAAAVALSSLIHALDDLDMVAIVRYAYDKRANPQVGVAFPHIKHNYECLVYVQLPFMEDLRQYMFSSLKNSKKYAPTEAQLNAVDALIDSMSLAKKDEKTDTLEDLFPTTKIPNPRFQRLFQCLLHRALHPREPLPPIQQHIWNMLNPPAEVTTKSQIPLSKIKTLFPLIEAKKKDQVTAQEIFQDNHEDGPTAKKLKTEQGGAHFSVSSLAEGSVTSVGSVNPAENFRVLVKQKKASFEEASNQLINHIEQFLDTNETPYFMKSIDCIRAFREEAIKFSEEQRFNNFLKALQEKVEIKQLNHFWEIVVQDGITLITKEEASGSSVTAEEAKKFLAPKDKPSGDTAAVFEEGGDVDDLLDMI
UniProt Q9HAV4: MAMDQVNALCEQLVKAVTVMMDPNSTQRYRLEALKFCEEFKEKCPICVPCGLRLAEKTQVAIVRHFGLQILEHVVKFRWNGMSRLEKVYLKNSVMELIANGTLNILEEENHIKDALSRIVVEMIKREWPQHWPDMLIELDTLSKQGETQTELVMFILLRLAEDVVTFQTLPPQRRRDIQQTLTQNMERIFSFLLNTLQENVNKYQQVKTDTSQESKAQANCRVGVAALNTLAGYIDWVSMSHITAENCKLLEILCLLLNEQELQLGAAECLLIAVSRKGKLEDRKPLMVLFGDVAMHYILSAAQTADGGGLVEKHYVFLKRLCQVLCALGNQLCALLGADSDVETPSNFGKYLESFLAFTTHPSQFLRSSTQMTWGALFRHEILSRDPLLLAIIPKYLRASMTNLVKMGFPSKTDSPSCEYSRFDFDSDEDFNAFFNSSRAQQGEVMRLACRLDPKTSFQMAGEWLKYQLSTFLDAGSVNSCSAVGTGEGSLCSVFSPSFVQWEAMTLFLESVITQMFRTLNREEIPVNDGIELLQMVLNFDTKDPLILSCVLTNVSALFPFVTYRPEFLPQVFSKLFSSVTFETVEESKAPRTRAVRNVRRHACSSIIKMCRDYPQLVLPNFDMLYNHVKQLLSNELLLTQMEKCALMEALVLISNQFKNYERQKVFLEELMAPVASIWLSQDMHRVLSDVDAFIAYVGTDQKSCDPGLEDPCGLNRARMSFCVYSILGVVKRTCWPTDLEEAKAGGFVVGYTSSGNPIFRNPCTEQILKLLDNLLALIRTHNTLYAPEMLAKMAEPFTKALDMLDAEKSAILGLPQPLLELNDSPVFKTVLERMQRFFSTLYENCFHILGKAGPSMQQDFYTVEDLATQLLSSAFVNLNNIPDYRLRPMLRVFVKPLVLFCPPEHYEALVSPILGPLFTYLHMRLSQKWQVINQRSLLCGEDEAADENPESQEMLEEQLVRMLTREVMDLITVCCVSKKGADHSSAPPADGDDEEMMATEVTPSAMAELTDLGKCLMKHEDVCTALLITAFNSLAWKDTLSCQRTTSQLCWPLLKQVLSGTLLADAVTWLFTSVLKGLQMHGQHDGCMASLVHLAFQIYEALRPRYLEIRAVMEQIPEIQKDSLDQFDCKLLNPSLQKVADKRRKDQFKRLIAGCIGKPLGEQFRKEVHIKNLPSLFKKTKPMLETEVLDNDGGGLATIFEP
UniProt Q9UIJ5: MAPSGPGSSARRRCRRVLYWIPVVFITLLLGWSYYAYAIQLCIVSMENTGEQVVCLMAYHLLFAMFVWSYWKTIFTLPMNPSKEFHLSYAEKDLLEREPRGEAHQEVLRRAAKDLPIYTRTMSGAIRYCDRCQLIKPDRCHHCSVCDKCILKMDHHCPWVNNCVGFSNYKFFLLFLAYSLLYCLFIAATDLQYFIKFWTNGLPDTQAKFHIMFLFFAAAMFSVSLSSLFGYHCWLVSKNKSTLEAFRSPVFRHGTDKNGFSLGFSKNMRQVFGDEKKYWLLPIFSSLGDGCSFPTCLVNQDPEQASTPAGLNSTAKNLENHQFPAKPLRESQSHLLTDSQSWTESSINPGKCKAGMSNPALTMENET
UniProt P63104: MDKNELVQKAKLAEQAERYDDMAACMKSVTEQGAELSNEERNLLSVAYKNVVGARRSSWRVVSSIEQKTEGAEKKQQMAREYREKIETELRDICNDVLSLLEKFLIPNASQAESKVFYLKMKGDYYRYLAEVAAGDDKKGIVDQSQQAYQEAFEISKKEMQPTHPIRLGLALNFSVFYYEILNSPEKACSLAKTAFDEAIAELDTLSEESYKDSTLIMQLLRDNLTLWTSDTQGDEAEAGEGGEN

Legend:
Assay in all cases: log2 fold change, soluble protein after heating vs DMSO (PISA); higher = thermal stabilisation; K562 cells, 10 uM, 30 min; active = over 0.2 and 3.5 SD of the protein, either way, in both replicates (recomputed)
[1] = compound: COC1=CC=C(C=C1)CN2C=CC3=C2C=C(C=C3)C(=O)NO
Method in brief: (§1)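 Values are thermal stability changes relative to control samples and are taken from duplicates. They are stated as log2 fold changes. Before quantification by TMTpro 16plex LC-MS/MS with equalised channel sums, K562 cells at 2×10^6 cells/mL were treated with 10 μM compound for 30 min, heated in aliquots for 3 min across 48°C-58°C, pooled, extracted in PBS with 0.5% NP-40 at 4°C, and centrifuged at 21,000xg for 90 min to give the soluble supernatant.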

filanesib = compound: CON(C)C(=O)N1N=C(c2cc(F)ccc2F)S[C@@]1(CCCN)c1ccccc1 [filanesib]
Method in brief: as §1

zotarolimus = compound: CO[C@H]1C[C@@H]2CC[C@@H](C)[C@@](O)(O2)C(=O)C(=O)N2CCCC[C@H]2C(=O)O[C@H]([C@H](C)C[C@@H]2CC[C@H](n3cnnn3)[C@H](OC)C2)CC(=O)[C@H](C)/C=C(\C)[C@@H](O)[C@@H](OC)C(=O)[C@H](C)C[C@H](C)/C=C/C=C/C=C/1C [zotarolimus]
Method in brief: as §1

idasanutlin = compound: COc1cc(C(=O)O)ccc1NC(=O)[C@@H]1N[C@@H](CC(C)(C)C)[C@](C#N)(c2ccc(Cl)cc2F)[C@H]1c1cccc(Cl)c1F [idasanutlin]
Method in brief: as §1

alisertib = compound: COc1cc(Nc2ncc3c(n2)-c2ccc(Cl)cc2C(c2c(F)cccc2OC)=NC3)ccc1C(=O)O [alisertib]
Method in brief: as §1

[2] = compound: COc1cc2nc(-c3cc(F)ccc3O)nc(N[C@@H]3CNC[C@H]3C(C)(C)O)c2cc1OC
Method in brief: as §1

gefitinib = compound: COc1cc2ncnc(Nc3ccc(F)c(Cl)c3)c2cc1OCCCN1CCOCC1 [gefitinib]
Method in brief: as §1

[3] = compound: COc1cccc2cc(-c3nc([C@H]4CC[C@H](C(=O)O)CC4)n4ncnc(N)c34)[nH]c12
Method in brief: as §1

lapatinib = compound: CS(=O)(=O)CCNCc1ccc(-c2ccc3ncnc(Nc4ccc(OCc5cccc(F)c5)c(Cl)c4)c3c2)o1 [lapatinib]
Method in brief: as §1

pictilisib = compound: CS(=O)(=O)N1CCN(Cc2cc3nc(-c4cccc5[nH]ncc45)nc(N4CCOCC4)c3s2)CC1 [pictilisib]
Method in brief: as §1

[4] = compound: CS(=O)(=O)c1ccc(-c2cnc(N)c(C(=O)Nc3ccccc3)n2)cc1
Method in brief: as §1

crizotinib = compound: C[C@@H](Oc1cc(-c2cnn(C3CCNCC3)c2)cnc1N)c1c(Cl)ccc(F)c1Cl [crizotinib]
Method in brief: as §1

[5] = compound: C[C@@H]1COCCN1C2=NC(=NC(=C2)C3(CC3)S(=O)(=O)C)C4=C5C=CNC5=CC=C4
Method in brief: as §1

[6] = compound: C[C@H](C1=CC=C(C=C1)C(=O)NC2=C3C=CNC3=NC=C2)N
Method in brief: as §1

gandotinib = compound: Cc1cc(Nc2cc(CN3CCOCC3)c3nc(C)c(Cc4ccc(Cl)cc4F)n3n2)n[nH]1 [gandotinib]
Method in brief: as §1

[7] = compound: Cc1cc(SCc2sc(-c3ccc(C(F)(F)F)cc3)nc2C)ccc1OCC(=O)O
Method in brief: as §1

doramapimod = compound: Cc1ccc(-n2nc(C(C)(C)C)cc2NC(=O)Nc2ccc(OCCN3CCOCC3)c3ccccc23)cc1 [doramapimod]
Method in brief: as §1

ispinesib = compound: Cc1ccc(C(=O)N(CCCN)[C@@H](c2nc3cc(Cl)ccc3c(=O)n2Cc2ccccc2)C(C)C)cc1 [ispinesib]
Method in brief: as §1

duvelisib = compound: C[C@H](Nc1ncnc2nc[nH]c12)c1cc2cccc(Cl)c2c(=O)n1-c1ccccc1 [duvelisib]
Method in brief: as §1

tozasertib = compound: Cc1cc(Nc2cc(N3CCN(C)CC3)nc(Sc3ccc(NC(=O)C4CC4)cc3)n2)n[nH]1 [tozasertib]
Method in brief: as §1

Measured: log2 fold change

ZFAND5 (UniProt O76080)
inactive: [1] -0.032 | filanesib 0.073 | zotarolimus -0.012 | idasanutlin 0.079 | alisertib -0.057 | [2] 0 | gefitinib -0.006 | [3] 0.129 | lapatinib 0.038 | pictilisib 0.007 | [4] -0.035 | crizotinib -0.085 | [5] 0.041 | [6] -0.021 | gandotinib 0.066 | [7] -0.079 | doramapimod 0.106 | ispinesib -0.07

ZER1 (UniProt Q7Z7L7)
inactive: [1] -0.236 | filanesib -0.006 | zotarolimus -0.035 | idasanutlin -0.188 | alisertib -0.006 | [2] 0.048 | gefitinib -0.031 | [3] 0.067 | lapatinib -0.057 | pictilisib 0.085 | [4] 0.034 | crizotinib 0.084 | [5] 0.107 | [6] -0.055 | gandotinib -0.269 | [7] 0.055 | doramapimod -0.163 | ispinesib 0.153

ZMYM1 (UniProt Q5SVZ6)
inactive: [1] -0.056 | filanesib 0.067 | zotarolimus -0.05 | idasanutlin 0.085 | alisertib -0.021 | [2] 0.004 | gefitinib 0.014 | [3] -0.128 | lapatinib 0.082 | pictilisib -0.018 | [4] 0.026 | crizotinib -0.017 | [5] 0.029 | [6] 0.016 | gandotinib 0.305 | [7] 0.032 | doramapimod 0.003 | ispinesib -0.122

ZNF217 (UniProt O75362)
inactive: [1] -0.024 | filanesib -0.045 | zotarolimus -0.007 | idasanutlin -0.027 | alisertib -0.092 | [2] -0.026 | gefitinib 0.001 | [3] 0.043 | lapatinib 0.018 | pictilisib -0.038 | [4] -0.037 | crizotinib -0.121 | [5] -0.099 | [6] -0.013 | gandotinib -0.098 | [7] 0.112 | doramapimod -0.027 | ispinesib -0.064

XRCC6 (UniProt P12956)
inactive: [1] 0.006 | filanesib -0.021 | zotarolimus 0.058 | idasanutlin -0.059 | alisertib -0.014 | [2] -0.097 | gefitinib -0.01 | [3] -0.008 | lapatinib 0.013 | pictilisib -0.024 | [4] 0.013 | crizotinib -0.064 | [5] 0.088 | [6] -0.042 | gandotinib -0.149 | [7] 0.091 | doramapimod -0.05 | ispinesib -0.039

ZNF24 (UniProt P17028)
inactive: [1] -0.05 | filanesib 0.131 | zotarolimus -0.021 | idasanutlin 0.158 | alisertib -0.272 | [2] -0.012 | gefitinib -0.163 | [3] -0.156 | lapatinib 0.179 | pictilisib -0.069 | [4] -0.081 | crizotinib 0.004 | [5] -0.37 | [6] 0.198 | duvelisib -0.061 | gandotinib 0.22 | tozasertib 0.036 | [7] 0.03 | doramapimod 0.165 | ispinesib -0.471

ZFPL1 (UniProt O95159)
inactive: [1] 0.074 | filanesib -0.001 | zotarolimus 0.006 | idasanutlin -0.026 | alisertib 0.014 | [2] 0.099 | gefitinib 0.065 | [3] -0.039 | lapatinib -0.035 | pictilisib 0.173 | [4] -0.045 | crizotinib 0.107 | [5] -0.056 | [6] -0.006 | gandotinib 0.011 | [7] 0.025 | doramapimod -0.098 | ispinesib 0.236

ZNF239 (UniProt Q16600)
inactive: [1] -0.178 | filanesib 0.051 | zotarolimus -0.483 | idasanutlin -0.031 | alisertib -0.004 | [2] 0.024 | gefitinib -0.267 | [3] 0.548 | lapatinib -0.095 | pictilisib -0.249 | [4] -0.06 | crizotinib -0.124 | [5] -0.065 | [6] 0.022 | gandotinib -0.267 | [7] -0.172 | doramapimod 0.069 | ispinesib -0.074

YY1 (UniProt P25490)
active: [2] -0.268
inactive: [1] 0.069 | filanesib -0.006 | zotarolimus -0.01 | idasanutlin 0.077 | alisertib -0.062 | gefitinib -0.076 | [3] 0.009 | lapatinib -0.023 | pictilisib -0.021 | [4] -0.061 | crizotinib -0.021 | [5] 0.02 | [6] -0.071 | gandotinib -0.012 | [7] 0.002 | doramapimod -0.037 | ispinesib -0.147

ZDHHC17 (UniProt Q8IUH5)
inactive: [1] 0.137 | filanesib -0.219 | zotarolimus 0.039 | idasanutlin -0.048 | alisertib -0.02 | [2] 0.029 | gefitinib 0.04 | [3] 0.003 | lapatinib -0.022 | pictilisib 0.021 | [4] -0.005 | crizotinib -0.064 | [5] 0.005 | [6] -0.03 | gandotinib 0.052 | [7] -0.04 | ispinesib 0.023
active: doramapimod 0.264

Reprinted at random: two records from the list, in no set order.
XRCC6 (UniProt P12956)
inactive: [1] 0.006 | filanesib -0.021 | zotarolimus 0.058 | idasanutlin -0.059 | alisertib -0.014 | [2] -0.097 | gefitinib -0.01 | [3] -0.008 | lapatinib 0.013 | pictilisib -0.024 | [4] 0.013 | crizotinib -0.064 | [5] 0.088 | [6] -0.042 | gandotinib -0.149 | [7] 0.091 | doramapimod -0.05 | ispinesib -0.039

ZFPL1 (UniProt O95159)
inactive: [1] 0.074 | filanesib -0.001 | zotarolimus 0.006 | idasanutlin -0.026 | alisertib 0.014 | [2] 0.099 | gefitinib 0.065 | [3] -0.039 | lapatinib -0.035 | pictilisib 0.173 | [4] -0.045 | crizotinib 0.107 | [5] -0.056 | [6] -0.006 | gandotinib 0.011 | [7] 0.025 | doramapimod -0.098 | ispinesib 0.236

Carrying on:

XRCC5 (UniProt P13010)
inactive: [1] 0.19 | filanesib -0.049 | zotarolimus 0.087 | idasanutlin 0.014 | alisertib 0.061 | [2] -0.232 | gefitinib 0.076 | [3] -0.087 | lapatinib 0.024 | pictilisib -0.047 | [4] 0.037 | crizotinib -0.086 | [5] 0.047 | [6] 0.077 | gandotinib -0.001 | [7] 0.179 | doramapimod 0.064 | ispinesib -0.16

XPO5 (UniProt Q9HAV4)
inactive: [1] 0.019 | filanesib -0.122 | zotarolimus 0.023 | idasanutlin -0.055 | alisertib -0.008 | [2] -0.068 | gefitinib -0.008 | [3] -0.052 | lapatinib -0.004 | pictilisib -0.034 | [4] -0.008 | crizotinib -0.052 | [5] 0.021 | [6] -0.026 | gandotinib -0.192 | [7] 0.064 | doramapimod -0.043 | ispinesib -0.079

ZC3H18 (UniProt Q86VM9)
inactive: [1] -0.009 | filanesib 0.217 | zotarolimus 0.041 | idasanutlin 0.23 | alisertib -0.085 | [2] -0.066 | gefitinib -0.033 | [3] 0.014 | lapatinib 0.111 | pictilisib -0.019 | [4] -0.056 | crizotinib -0.042 | [5] -0.008 | [6] -0.103 | gandotinib 0.017 | [7] -0.034 | doramapimod 0.052 | ispinesib 0.039

YES1 (UniProt P07947)
inactive: [1] 0.072 | zotarolimus 0.053 | idasanutlin 0.041 | alisertib -0.211 | [2] -0.052 | gefitinib -0.045 | [3] -0.256 | lapatinib 0.057 | pictilisib 0.093 | [5] -0.035 | [6] 0 | gandotinib -0.447 | [7] 0.06 | doramapimod 0.006 | ispinesib -0.097
active: crizotinib -0.576

YWHAZ (UniProt E7ESK7)
inactive: [1] 0.006 | zotarolimus -0.072 | idasanutlin -0.061 | alisertib -0.041 | [2] 0.028 | [3] 0.187 | lapatinib -0.051 | crizotinib 0.081 | [5] 0.165 | [6] 0.179 | [7] -0.02 | doramapimod 0 | ispinesib -0.11

ZDHHC2 (UniProt Q9UIJ5)
inactive: [1] 0.035 | filanesib -0.155 | alisertib 0.085 | [2] -0.213 | gefitinib 0.035 | [3] 0.114 | lapatinib 0.217 | pictilisib -0.006 | [4] 0.103 | crizotinib -0.033 | gandotinib 0.004 | doramapimod 0.082 | ispinesib -0.088

YWHAZ (UniProt P63104)
inactive: [1] -0.002 | filanesib -0.027 | zotarolimus 0.107 | idasanutlin -0.026 | alisertib -0.028 | [2] -0.163 | gefitinib 0.005 | [3] -0.052 | lapatinib 0.197 | pictilisib -0.037 | [4] -0.017 | crizotinib 0.008 | [5] 0.011 | [6] -0.178 | gandotinib 0.084 | [7] 0.012 | doramapimod 0.013 | ispinesib 0.149
